# Earlier results in publication PMC6152407, “Molecular Mechanisms Underlying Inhibitory Binding of Alkylimidazolium Ionic Liquids to Laccase” (Molecules : A Journal of Synthetic Chemistry and Natural …, 2017).
# Tested on: tyrosinase
# Design: method as in PMID 19112180
# Conditions: 2% IL; cited from earlier work
row,Structure (SMILES),right shift of optimal pH of tyrosinase
1,CCCCn1cc[n+](C)c1.COS(=O)(=O)[O-] [[Bmim]MeSO4],0.5 unit
2,CCCCn1cc[n+](C)c1.F[B-](F)(F)F [[Bmim]BF4],0.5 unit
3,CCCCn1cc[n+](C)c1.F[P-](F)(F)(F)(F)F [[Bmim]PF6],not being affected
